# Some of the results follow.
# Chains of the proteins cited; added tags and fusions are not shown. Lines headed by an entry give the natural chain unless they say otherwise; changes in a name come on top.
# UniProt Q9H469: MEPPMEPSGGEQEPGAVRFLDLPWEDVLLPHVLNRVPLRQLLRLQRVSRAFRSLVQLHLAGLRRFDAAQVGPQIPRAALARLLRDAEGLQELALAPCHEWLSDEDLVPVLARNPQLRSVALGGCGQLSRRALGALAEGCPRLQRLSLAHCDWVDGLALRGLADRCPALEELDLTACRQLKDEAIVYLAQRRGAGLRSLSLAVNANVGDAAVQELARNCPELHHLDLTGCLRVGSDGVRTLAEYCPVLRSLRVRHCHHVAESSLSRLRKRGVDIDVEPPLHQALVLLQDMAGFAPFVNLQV
# UniProt Q13642: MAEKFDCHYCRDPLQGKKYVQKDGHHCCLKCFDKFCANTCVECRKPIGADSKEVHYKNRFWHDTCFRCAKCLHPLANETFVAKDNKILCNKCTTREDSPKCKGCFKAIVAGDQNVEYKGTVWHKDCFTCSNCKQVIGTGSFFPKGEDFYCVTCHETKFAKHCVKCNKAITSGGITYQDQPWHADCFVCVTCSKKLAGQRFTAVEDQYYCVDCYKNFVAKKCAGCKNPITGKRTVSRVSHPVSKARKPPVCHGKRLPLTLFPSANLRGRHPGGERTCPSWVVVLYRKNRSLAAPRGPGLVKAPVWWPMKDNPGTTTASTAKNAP
# UniProt Q9Y4F1: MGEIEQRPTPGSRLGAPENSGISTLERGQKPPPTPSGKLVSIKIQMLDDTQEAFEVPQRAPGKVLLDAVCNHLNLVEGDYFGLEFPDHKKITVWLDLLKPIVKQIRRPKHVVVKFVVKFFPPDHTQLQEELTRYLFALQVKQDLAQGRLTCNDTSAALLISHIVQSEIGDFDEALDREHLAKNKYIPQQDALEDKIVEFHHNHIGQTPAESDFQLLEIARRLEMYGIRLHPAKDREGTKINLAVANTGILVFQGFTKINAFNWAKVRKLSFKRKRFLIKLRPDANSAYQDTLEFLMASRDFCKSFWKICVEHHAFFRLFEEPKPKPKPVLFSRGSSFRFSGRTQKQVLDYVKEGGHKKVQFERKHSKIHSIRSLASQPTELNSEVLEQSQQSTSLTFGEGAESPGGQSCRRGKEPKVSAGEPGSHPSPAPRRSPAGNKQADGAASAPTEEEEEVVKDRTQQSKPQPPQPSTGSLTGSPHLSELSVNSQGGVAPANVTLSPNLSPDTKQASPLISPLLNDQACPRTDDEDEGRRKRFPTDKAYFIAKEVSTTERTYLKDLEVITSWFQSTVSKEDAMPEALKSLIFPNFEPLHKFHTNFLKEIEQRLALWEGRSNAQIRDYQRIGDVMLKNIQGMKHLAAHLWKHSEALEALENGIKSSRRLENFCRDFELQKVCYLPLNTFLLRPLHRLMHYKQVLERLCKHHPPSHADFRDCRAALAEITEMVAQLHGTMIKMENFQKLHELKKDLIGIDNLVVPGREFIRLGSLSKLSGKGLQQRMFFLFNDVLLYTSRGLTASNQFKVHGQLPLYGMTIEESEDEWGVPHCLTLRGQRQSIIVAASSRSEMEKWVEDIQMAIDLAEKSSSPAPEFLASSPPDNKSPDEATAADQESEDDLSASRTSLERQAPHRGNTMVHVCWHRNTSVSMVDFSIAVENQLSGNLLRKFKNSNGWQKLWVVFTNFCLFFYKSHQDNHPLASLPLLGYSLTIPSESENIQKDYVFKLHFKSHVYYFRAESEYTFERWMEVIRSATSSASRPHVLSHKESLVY
# UniProt Q9Y2H6: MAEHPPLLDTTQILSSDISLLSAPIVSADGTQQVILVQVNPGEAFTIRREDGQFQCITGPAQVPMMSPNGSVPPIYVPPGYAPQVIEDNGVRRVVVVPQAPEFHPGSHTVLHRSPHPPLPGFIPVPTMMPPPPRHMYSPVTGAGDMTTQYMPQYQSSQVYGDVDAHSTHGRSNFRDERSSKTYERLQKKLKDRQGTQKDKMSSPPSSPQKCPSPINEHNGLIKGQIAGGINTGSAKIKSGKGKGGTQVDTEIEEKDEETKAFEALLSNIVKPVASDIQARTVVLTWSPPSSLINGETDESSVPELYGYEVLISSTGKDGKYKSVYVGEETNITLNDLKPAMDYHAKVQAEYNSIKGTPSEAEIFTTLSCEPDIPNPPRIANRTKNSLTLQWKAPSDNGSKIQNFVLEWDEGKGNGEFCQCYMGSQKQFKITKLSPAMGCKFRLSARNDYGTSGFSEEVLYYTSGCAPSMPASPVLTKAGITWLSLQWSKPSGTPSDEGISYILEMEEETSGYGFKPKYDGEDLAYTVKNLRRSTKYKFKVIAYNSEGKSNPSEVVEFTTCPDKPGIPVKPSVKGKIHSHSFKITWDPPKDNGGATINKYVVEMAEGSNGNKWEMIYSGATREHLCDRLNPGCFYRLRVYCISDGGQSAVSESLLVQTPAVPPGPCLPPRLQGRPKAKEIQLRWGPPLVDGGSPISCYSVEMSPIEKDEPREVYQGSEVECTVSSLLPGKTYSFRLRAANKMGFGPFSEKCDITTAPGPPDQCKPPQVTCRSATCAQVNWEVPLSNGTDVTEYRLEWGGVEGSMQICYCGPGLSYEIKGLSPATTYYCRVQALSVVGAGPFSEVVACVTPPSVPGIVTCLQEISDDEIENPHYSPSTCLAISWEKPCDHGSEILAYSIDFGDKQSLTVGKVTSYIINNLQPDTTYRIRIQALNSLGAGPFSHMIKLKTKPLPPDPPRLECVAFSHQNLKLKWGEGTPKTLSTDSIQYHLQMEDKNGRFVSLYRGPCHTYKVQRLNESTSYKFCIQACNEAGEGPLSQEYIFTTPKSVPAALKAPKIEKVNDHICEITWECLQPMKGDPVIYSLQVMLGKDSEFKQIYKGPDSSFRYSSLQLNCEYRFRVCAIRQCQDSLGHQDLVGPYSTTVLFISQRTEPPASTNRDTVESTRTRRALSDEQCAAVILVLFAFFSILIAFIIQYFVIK
# UniProt Q13045: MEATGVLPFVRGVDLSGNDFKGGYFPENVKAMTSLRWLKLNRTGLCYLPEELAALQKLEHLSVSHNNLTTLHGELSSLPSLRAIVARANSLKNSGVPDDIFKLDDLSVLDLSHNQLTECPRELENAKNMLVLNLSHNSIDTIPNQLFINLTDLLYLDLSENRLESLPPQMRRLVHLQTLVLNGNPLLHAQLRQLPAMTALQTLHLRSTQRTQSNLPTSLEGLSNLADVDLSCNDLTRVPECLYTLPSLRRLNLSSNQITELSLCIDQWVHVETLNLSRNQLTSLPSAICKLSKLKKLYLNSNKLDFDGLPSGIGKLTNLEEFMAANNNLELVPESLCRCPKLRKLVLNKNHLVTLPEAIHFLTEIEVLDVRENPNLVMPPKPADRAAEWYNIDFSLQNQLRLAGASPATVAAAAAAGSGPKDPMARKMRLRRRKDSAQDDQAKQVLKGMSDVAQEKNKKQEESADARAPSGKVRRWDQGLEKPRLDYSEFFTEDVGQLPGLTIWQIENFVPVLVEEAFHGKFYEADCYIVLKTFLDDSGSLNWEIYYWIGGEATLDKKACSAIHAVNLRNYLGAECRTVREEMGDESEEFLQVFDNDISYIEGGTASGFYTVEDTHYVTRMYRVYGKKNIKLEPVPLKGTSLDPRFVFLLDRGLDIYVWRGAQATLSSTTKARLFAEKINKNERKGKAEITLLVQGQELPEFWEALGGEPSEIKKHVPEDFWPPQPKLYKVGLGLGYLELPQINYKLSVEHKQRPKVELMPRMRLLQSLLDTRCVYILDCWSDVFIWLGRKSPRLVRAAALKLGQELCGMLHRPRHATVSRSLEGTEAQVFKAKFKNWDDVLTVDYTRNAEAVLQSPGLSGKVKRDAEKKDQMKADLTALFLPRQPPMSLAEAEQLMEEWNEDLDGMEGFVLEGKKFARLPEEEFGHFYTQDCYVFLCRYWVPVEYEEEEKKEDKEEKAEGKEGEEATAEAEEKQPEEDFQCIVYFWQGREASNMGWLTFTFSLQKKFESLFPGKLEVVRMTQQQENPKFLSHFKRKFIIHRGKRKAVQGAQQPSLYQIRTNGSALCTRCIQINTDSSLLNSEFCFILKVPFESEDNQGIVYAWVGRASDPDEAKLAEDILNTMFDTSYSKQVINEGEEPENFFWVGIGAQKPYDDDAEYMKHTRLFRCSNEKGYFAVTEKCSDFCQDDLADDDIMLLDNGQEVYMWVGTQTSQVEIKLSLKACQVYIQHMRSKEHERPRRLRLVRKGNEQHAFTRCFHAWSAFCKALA
# UniProt P01100, whole entry, looked up: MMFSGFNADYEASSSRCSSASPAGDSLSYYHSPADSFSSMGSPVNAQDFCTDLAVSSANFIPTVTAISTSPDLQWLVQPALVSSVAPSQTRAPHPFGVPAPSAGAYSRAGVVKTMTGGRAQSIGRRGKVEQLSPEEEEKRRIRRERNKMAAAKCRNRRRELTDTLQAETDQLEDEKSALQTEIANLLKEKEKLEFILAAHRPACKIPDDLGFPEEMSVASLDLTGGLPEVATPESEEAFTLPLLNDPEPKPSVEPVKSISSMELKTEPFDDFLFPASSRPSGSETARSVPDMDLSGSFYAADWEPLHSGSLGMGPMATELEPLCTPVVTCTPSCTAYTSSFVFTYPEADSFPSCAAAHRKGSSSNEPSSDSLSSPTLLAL
# UniProt Q96AY3, whole entry, looked up: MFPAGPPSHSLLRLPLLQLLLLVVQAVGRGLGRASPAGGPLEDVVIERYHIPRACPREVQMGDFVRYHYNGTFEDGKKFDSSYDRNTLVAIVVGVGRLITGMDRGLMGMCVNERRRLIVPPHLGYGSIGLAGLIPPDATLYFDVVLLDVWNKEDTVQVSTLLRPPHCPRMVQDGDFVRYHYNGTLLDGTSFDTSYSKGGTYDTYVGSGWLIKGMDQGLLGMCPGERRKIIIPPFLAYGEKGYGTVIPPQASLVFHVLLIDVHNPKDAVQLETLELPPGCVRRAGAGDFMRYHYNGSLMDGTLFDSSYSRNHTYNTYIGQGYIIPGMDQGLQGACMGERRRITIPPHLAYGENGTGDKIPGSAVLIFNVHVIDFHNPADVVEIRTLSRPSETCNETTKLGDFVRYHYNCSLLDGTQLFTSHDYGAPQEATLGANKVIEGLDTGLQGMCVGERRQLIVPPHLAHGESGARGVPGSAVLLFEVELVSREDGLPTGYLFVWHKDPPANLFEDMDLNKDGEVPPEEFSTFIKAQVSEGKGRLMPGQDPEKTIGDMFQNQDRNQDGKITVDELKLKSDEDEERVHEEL
# UniProt P23142: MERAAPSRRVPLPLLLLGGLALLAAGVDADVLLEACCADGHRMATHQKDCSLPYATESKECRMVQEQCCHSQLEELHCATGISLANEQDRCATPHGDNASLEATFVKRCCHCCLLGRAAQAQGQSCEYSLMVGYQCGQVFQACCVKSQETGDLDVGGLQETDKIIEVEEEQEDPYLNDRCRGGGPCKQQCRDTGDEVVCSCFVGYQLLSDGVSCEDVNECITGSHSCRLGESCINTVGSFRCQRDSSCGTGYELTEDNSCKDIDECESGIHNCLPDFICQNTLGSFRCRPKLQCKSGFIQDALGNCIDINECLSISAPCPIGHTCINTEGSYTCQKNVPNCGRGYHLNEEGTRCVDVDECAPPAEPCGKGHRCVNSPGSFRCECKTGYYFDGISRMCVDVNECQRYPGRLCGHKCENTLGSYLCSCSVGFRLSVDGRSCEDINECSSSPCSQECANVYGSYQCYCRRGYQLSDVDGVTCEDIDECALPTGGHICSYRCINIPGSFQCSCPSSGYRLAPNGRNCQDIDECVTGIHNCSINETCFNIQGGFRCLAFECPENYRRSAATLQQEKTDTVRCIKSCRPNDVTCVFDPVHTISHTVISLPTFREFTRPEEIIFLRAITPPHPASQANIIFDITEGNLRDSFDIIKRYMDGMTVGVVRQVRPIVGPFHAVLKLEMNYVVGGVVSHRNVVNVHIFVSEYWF
# UniProt O15287: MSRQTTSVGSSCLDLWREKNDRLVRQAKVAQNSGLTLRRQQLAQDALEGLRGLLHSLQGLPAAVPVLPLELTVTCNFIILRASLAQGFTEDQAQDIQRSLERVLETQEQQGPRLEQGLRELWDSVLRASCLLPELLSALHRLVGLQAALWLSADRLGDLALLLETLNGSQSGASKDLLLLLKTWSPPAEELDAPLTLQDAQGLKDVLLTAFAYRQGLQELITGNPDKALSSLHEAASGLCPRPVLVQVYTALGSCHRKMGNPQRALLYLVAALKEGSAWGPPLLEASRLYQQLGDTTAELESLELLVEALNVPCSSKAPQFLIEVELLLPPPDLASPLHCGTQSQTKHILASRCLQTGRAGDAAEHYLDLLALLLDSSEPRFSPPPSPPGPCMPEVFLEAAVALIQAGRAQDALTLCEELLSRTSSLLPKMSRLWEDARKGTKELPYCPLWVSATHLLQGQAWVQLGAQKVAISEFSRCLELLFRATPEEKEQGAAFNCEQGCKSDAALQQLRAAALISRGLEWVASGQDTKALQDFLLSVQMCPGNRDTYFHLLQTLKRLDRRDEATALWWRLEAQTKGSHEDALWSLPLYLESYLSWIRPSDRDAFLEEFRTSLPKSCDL
# Experiments:
# Assay in all cases: log2 fold change, soluble protein after heating vs DMSO (PISA); higher = thermal stabilisation; K562 lysate, 10 uM; active = over 0.2 and 3.5 SD of the protein, either way, in both replicates (recomputed)
# lapatinib = compound: CS(=O)(=O)CCNCc1ccc(-c2ccc3ncnc(Nc4ccc(OCc5cccc(F)c5)c(Cl)c4)c3c2)o1 [lapatinib]
# Outline: (§1)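 K562 pellets were dounce-homogenised in PBS pH 7.4 with 1 mM MgCl2, and the crude extract at 1 mg/mL protein was treated with 10 μM compound for 30 min. Aliquots were heated for 3 min across 48°C-58°C, pooled, and brought to 0.5% NP-40 at 4°C; soluble protein was the supernatant after 21,000xg for 90 min. Soluble protein was quantified by TMTpro 16plex LC-MS/MS with channel sums equalised, and reported as log2 fold change in thermal stability against DMSO controls, with values from duplicates.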
# pictilisib = compound: CS(=O)(=O)N1CCN(Cc2cc3nc(-c4cccc5[nH]ncc45)nc(N4CCOCC4)c3s2)CC1 [pictilisib]
# Outline: as §1
# crizotinib = compound: C[C@@H](Oc1cc(-c2cnn(C3CCNCC3)c2)cnc1N)c1c(Cl)ccc(F)c1Cl [crizotinib]
# Outline: as §1
# [1] = compound: C[C@H](C1=CC=C(C=C1)C(=O)NC2=C3C=CNC3=NC=C2)N
# Outline: as §1
# gandotinib = compound: Cc1cc(Nc2cc(CN3CCOCC3)c3nc(C)c(Cc4ccc(Cl)cc4F)n3n2)n[nH]1 [gandotinib]
# Outline: as §1
# tozasertib = compound: Cc1cc(Nc2cc(N3CCN(C)CC3)nc(Sc3ccc(NC(=O)C4CC4)cc3)n2)n[nH]1 [tozasertib]
# Outline: as §1
# doramapimod = compound: Cc1ccc(-n2nc(C(C)(C)C)cc2NC(=O)Nc2ccc(OCCN3CCOCC3)c3ccccc23)cc1 [doramapimod]
# Outline: as §1
# bafetinib = compound: Cc1ccc(NC(=O)c2ccc(CN3CC[C@H](N(C)C)C3)c(C(F)(F)F)c2)cc1Nc1nccc(-c2cncnc2)n1 [bafetinib]
# Outline: as §1
# [2] = compound: Cc1cccc(CC(=O)N2CCc3c2ccc(-c2cn(C)c4ncnc(N)c24)c3F)n1
# Outline: as §1
# duvelisib = compound: C[C@H](Nc1ncnc2nc[nH]c12)c1cc2cccc(Cl)c2c(=O)n1-c1ccccc1 [duvelisib]
# Outline: as §1
target,measurement,setting,value
FBXO45 (UniProt P0C2W1),log2 fold change,lapatinib,inactive: -0.067
same,log2 fold change,pictilisib,inactive: -0.034
same,log2 fold change,crizotinib,inactive: -0.123
same,log2 fold change,[1],inactive: -0.081
same,log2 fold change,gandotinib,inactive: -0.031
same,log2 fold change,tozasertib,inactive: 0.115
same,log2 fold change,doramapimod,inactive: 0.017
same,log2 fold change,bafetinib,inactive: -0.272
same,log2 fold change,[2],inactive: 0.091
FLYWCH1 isoform 3 (UniProt Q4VC44),log2 fold change,lapatinib,inactive: 0.067
same,log2 fold change,crizotinib,inactive: -0.101
same,log2 fold change,duvelisib,inactive: -0.057
same,log2 fold change,doramapimod,inactive: -0.138
FEN1 (UniProt I3L3E9),log2 fold change,lapatinib,inactive: 0.01
same,log2 fold change,[1],inactive: -0.021
same,log2 fold change,gandotinib,inactive: -0.212
same,log2 fold change,tozasertib,inactive: 0.128
same,log2 fold change,[2],inactive: -0.038
FASTKD3 (UniProt Q14CZ7),log2 fold change,lapatinib,inactive: 0.182
same,log2 fold change,tozasertib,inactive: -0.144
FBXL15 (UniProt Q9H469),log2 fold change,crizotinib,inactive: 0
same,log2 fold change,[1],inactive: -0.098
same,log2 fold change,duvelisib,inactive: -0.025
same,log2 fold change,gandotinib,inactive: 0.217
same,log2 fold change,tozasertib,inactive: -0.048
same,log2 fold change,doramapimod,inactive: 0.022
same,log2 fold change,[2],inactive: 0.063
FBH1 isoform 2 (UniProt Q8NFZ0),log2 fold change,pictilisib,inactive: 0.02
same,log2 fold change,crizotinib,inactive: 0.051
same,log2 fold change,[1],inactive: 0.174
same,log2 fold change,gandotinib,inactive: -0.059
same,log2 fold change,doramapimod,inactive: 0.049
same,log2 fold change,bafetinib,inactive: 0.016
same,log2 fold change,[2],inactive: -0.049
FARP2 (UniProt H7C3M7),log2 fold change,crizotinib,inactive: -0.079
same,log2 fold change,[1],inactive: -0.099
same,log2 fold change,duvelisib,inactive: -0.076
same,log2 fold change,gandotinib,inactive: 0.051
same,log2 fold change,tozasertib,inactive: -0.09
same,log2 fold change,doramapimod,inactive: 0.171
same,log2 fold change,[2],inactive: 0.105
FANCA (UniProt O15360),log2 fold change,crizotinib,inactive: -0.137
same,log2 fold change,duvelisib,inactive: 0.104
same,log2 fold change,tozasertib,inactive: 0.037
same,log2 fold change,doramapimod,inactive: -0.194
FLNA (UniProt H0Y5C6),log2 fold change,lapatinib,inactive: 0.127
same,log2 fold change,duvelisib,inactive: -0.08
FHL1 isoform 4 (UniProt Q13642),log2 fold change,[1],inactive: 0.423
same,log2 fold change,gandotinib,inactive: -0.172
same,log2 fold change,[2],inactive: -0.09
FASTKD1 (UniProt Q53R41),log2 fold change,crizotinib,inactive: -0.226
same,log2 fold change,[1],inactive: -0.028
same,log2 fold change,duvelisib,inactive: 0.026
same,log2 fold change,gandotinib,inactive: 0.014
same,log2 fold change,tozasertib,inactive: -0.011
same,log2 fold change,doramapimod,inactive: -0.061
same,log2 fold change,[2],inactive: 0.065
FARP1 isoform 2 (UniProt Q9Y4F1),log2 fold change,pictilisib,inactive: -0.194
same,log2 fold change,crizotinib,inactive: -0.026
same,log2 fold change,duvelisib,inactive: 0.028
same,log2 fold change,tozasertib,inactive: -0.024
same,log2 fold change,doramapimod,inactive: 0.003
same,log2 fold change,bafetinib,inactive: 0.056
FBXL4 (UniProt Q9UKA2),log2 fold change,tozasertib,inactive: -0.032
FNDC3A (UniProt Q9Y2H6),log2 fold change,crizotinib,inactive: 0.036
same,log2 fold change,[1],active: -0.808
same,log2 fold change,gandotinib,inactive: 0.42
same,log2 fold change,doramapimod,inactive: 0.143
same,log2 fold change,[2],inactive: 0.126
FLII isoform 2 (UniProt Q13045),log2 fold change,lapatinib,inactive: -0.056
same,log2 fold change,tozasertib,inactive: 0.008
FOS (UniProt P01100),log2 fold change,[1],inactive: -0.511
same,log2 fold change,gandotinib,inactive: 0.009
same,log2 fold change,tozasertib,inactive: 0.219
same,log2 fold change,[2],inactive: -0.246
FKBP10 (UniProt Q96AY3),log2 fold change,[1],inactive: 0.083
same,log2 fold change,duvelisib,inactive: 0.406
same,log2 fold change,gandotinib,inactive: -0.244
same,log2 fold change,tozasertib,inactive: 0.037
same,log2 fold change,[2],inactive: -0.011
FBLN1 (UniProt P23142),log2 fold change,pictilisib,inactive: -0.02
same,log2 fold change,crizotinib,inactive: 0.006
same,log2 fold change,[1],inactive: -0.083
same,log2 fold change,gandotinib,inactive: 0.169
same,log2 fold change,doramapimod,inactive: 0.057
same,log2 fold change,bafetinib,inactive: -0.009
same,log2 fold change,[2],inactive: 0.213
FCHSD2 (UniProt O94868),log2 fold change,lapatinib,inactive: -0.024
same,log2 fold change,duvelisib,inactive: 0.029
FGFR1OP2 isoform 2 (UniProt Q9NVK5),log2 fold change,crizotinib,inactive: -0.006
same,log2 fold change,[1],inactive: 0.148
same,log2 fold change,gandotinib,inactive: -0.017
same,log2 fold change,doramapimod,inactive: -0.155
same,log2 fold change,[2],inactive: -0.187
FCGR2B (UniProt P31994),log2 fold change,crizotinib,inactive: -0.012
same,log2 fold change,tozasertib,inactive: 0.276
same,log2 fold change,doramapimod,inactive: 0.052
FBXL19 (UniProt Q6PCT2),log2 fold change,crizotinib,inactive: 0.097
same,log2 fold change,doramapimod,inactive: 0.195
FANCG (UniProt O15287),log2 fold change,crizotinib,inactive: -0.12
same,log2 fold change,[1],inactive: 0.08
same,log2 fold change,gandotinib,inactive: 0.051
same,log2 fold change,tozasertib,inactive: 0.008
same,log2 fold change,doramapimod,inactive: -0.215
same,log2 fold change,[2],inactive: -0.084
FHAD1 isoform 3 (UniProt B1AJZ9),log2 fold change,lapatinib,inactive: -0.145
same,log2 fold change,duvelisib,inactive: 0.013
same,log2 fold change,tozasertib,inactive: -0.024

# Exported bar-delimited: entries from further up.
target | measurement | setting | value
FARP2 (UniProt H7C3M7) | log2 fold change | [1] | inactive: -0.099
same | log2 fold change | duvelisib | inactive: -0.076
same | log2 fold change | gandotinib | inactive: 0.051
